# In the supplement of paper PMC7666118:
# Amino acid sequences for entries named in this document (tags omitted). A change or cut given only in a name is not applied to a line headed by its entry.
# UniProt Q6P4E1: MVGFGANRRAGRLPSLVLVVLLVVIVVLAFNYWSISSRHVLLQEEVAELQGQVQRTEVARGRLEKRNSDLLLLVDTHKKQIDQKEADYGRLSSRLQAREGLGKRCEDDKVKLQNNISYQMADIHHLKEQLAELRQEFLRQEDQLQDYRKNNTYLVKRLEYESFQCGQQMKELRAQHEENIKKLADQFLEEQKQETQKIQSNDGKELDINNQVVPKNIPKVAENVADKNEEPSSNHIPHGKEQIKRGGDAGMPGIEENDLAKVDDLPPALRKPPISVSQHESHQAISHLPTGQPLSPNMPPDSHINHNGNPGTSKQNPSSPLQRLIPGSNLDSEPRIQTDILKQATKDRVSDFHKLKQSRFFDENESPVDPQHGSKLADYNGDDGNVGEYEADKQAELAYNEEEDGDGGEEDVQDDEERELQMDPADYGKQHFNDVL
# UniProt Q8N0T1: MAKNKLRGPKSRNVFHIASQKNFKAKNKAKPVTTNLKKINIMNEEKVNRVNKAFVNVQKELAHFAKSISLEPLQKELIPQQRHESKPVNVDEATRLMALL
# UniProt Q7Z6I8: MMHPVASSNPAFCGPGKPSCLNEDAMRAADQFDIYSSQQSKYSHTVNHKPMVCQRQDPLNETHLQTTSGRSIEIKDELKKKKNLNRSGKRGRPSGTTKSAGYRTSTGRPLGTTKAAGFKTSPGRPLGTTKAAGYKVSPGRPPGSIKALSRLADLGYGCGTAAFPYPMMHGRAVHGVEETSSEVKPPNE
# UniProt P20810: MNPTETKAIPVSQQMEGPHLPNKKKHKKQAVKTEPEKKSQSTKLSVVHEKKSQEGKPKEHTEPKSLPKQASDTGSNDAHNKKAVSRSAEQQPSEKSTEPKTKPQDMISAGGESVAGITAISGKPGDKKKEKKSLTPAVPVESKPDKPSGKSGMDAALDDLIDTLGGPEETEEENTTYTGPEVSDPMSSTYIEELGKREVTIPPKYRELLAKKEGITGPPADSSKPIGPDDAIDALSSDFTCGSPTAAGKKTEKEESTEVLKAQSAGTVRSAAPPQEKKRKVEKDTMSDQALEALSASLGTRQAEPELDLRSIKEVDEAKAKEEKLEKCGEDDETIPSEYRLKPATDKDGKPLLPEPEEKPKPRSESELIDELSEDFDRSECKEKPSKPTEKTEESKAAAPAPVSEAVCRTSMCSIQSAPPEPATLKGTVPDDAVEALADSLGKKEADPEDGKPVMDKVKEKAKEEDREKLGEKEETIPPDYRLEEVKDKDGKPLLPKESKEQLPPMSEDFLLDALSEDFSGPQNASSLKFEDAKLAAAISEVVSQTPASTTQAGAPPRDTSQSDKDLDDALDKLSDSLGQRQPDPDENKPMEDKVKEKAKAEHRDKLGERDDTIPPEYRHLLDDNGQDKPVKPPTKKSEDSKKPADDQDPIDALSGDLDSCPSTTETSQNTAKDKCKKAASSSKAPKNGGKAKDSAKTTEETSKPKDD
# UniProt Q9UK61: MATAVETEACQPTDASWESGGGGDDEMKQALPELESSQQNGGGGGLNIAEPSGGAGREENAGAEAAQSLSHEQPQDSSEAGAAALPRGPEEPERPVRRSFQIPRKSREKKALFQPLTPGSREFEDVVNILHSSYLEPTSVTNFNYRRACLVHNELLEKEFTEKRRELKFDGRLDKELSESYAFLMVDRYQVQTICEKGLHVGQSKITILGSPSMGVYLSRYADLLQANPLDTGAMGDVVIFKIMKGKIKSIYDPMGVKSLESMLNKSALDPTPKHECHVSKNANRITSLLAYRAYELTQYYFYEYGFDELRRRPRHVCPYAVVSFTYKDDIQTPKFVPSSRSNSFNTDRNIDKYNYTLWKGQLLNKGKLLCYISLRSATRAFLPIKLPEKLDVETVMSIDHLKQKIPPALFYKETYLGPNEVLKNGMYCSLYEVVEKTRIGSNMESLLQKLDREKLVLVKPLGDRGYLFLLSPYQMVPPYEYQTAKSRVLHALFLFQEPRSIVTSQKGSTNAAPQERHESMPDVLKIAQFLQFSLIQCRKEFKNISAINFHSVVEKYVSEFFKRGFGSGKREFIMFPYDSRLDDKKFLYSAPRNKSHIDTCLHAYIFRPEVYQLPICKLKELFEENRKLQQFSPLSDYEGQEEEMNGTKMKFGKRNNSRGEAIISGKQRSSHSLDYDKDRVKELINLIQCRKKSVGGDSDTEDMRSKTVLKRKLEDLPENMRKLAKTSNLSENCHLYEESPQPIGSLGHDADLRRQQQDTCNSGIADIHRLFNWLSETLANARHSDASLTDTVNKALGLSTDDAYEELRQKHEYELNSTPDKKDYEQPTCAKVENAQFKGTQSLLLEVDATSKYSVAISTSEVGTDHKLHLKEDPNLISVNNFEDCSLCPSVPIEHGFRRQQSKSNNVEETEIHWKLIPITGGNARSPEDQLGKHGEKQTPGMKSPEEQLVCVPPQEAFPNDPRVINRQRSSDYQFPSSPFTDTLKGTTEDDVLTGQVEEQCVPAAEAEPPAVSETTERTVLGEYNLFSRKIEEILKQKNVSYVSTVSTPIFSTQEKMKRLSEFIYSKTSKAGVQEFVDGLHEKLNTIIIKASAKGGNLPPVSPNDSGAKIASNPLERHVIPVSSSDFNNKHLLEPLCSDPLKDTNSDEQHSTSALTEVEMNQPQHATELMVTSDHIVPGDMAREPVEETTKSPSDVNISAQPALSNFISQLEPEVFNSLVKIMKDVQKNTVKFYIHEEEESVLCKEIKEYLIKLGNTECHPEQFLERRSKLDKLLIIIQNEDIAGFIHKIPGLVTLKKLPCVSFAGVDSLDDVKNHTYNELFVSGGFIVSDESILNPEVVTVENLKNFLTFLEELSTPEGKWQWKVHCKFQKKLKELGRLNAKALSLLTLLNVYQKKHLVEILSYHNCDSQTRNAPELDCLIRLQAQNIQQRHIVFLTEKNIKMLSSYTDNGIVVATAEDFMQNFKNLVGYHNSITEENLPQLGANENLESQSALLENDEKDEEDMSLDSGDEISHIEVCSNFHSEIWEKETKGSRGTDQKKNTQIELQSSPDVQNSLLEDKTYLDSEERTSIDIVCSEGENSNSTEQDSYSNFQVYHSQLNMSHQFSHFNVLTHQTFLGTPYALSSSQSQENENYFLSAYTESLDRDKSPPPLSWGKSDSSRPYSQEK
# UniProt Q5TGZ0: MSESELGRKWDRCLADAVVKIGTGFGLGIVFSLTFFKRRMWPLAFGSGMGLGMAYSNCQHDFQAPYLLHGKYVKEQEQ
# UniProt Q9H0G5: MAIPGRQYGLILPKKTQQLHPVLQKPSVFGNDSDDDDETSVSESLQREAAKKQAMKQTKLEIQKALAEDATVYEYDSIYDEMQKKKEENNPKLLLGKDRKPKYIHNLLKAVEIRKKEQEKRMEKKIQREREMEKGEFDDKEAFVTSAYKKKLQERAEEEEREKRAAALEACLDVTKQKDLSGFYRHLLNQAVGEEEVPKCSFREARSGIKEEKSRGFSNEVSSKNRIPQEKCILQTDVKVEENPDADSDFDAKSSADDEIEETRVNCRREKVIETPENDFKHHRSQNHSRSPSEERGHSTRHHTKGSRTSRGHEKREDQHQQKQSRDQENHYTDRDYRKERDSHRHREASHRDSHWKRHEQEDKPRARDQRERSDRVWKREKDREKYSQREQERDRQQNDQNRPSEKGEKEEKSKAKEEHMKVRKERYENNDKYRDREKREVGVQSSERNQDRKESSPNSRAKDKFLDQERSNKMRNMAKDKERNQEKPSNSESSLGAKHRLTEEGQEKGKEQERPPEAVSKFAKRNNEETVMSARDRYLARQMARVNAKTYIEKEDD
# UniProt Q9NSG2: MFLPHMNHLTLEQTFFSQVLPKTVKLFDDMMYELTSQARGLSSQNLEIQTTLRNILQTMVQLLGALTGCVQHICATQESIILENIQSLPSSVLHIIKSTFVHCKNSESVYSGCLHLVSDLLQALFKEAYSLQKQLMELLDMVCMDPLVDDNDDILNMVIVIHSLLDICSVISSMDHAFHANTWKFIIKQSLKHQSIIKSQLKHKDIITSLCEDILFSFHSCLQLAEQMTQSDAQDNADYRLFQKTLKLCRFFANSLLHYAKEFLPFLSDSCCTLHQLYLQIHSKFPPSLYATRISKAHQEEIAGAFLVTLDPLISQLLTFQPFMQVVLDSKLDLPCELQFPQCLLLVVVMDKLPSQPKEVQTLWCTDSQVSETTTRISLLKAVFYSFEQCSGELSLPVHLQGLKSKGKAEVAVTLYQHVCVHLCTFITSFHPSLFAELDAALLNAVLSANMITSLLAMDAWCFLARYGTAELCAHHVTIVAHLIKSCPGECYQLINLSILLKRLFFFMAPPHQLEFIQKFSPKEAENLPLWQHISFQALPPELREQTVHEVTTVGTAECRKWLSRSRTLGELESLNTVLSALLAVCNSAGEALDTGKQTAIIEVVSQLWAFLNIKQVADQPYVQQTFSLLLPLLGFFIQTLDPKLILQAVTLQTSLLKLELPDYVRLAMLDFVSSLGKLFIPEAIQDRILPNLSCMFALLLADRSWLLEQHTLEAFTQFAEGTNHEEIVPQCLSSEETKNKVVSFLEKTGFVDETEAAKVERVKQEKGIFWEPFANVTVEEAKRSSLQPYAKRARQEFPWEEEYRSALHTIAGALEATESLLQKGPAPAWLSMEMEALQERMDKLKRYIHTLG
# UniProt P27797, whole entry: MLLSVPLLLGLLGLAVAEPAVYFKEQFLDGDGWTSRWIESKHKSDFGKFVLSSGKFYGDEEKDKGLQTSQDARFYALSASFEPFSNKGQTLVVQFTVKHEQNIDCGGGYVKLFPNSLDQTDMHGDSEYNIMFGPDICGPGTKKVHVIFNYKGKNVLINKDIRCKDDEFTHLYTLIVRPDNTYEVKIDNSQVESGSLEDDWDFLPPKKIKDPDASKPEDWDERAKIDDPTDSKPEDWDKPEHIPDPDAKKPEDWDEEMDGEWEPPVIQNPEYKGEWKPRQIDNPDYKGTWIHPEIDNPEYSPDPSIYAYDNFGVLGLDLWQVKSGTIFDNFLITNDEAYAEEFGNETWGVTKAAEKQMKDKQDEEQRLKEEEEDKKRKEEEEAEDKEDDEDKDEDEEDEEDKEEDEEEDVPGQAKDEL
# UniProt P54289, whole entry: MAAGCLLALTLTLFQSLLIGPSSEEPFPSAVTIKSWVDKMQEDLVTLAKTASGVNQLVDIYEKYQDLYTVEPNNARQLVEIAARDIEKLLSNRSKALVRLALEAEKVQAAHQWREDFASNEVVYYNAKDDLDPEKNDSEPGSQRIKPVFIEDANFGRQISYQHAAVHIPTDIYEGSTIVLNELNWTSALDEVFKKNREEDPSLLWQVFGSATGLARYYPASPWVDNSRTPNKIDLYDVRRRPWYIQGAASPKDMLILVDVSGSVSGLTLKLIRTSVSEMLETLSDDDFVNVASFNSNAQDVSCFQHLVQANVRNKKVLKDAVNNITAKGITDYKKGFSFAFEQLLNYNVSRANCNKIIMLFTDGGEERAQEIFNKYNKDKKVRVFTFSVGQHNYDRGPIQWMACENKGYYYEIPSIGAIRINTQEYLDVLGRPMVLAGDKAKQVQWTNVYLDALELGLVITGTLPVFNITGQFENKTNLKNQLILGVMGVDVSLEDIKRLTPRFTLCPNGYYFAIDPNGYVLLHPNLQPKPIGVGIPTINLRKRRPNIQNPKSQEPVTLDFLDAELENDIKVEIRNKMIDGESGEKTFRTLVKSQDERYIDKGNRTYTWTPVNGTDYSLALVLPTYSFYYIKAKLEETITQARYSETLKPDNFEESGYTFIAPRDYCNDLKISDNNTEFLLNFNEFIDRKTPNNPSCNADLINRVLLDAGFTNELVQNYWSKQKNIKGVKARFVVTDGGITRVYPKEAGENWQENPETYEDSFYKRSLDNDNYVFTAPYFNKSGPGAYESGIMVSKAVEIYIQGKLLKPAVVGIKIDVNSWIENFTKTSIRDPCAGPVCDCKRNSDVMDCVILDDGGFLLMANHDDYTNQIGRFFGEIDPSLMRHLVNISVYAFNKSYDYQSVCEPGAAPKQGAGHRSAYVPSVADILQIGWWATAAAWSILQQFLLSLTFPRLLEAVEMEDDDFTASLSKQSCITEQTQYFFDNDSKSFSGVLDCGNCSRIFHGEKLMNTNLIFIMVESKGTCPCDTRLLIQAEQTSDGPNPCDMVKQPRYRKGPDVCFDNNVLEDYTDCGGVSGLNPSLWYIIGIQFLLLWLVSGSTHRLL
# UniProt Q49AR2: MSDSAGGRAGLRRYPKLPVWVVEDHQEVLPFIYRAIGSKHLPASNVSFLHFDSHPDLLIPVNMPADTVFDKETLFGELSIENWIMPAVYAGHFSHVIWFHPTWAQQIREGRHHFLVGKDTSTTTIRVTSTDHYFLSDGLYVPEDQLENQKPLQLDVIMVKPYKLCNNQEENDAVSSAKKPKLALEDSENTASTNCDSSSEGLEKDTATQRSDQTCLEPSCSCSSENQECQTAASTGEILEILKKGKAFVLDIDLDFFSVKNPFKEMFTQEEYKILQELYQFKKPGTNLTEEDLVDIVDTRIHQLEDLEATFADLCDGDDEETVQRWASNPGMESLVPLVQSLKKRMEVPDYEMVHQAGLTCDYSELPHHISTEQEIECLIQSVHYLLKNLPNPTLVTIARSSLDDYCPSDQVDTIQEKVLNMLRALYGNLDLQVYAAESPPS
# Some of the results follow.
# Compound: COc1ccc(Cn2ccc3cc(C)c(C(=O)NO)cc32)cc1
# Test: dose-dependent thermal stabilisation call (2D-TPP, DLPTP, 10% FDR) (binary (1 = stabilised)); higher = stabilised by the compound
# Settings: system: HL-60 intact cells; concentration range 0.04-10 µM
# Procedure: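 2D thermal proteome profiling in intact HL-60 cells treated with BRD-3811 (0, 0.04, 0.29, 2, 10 uM) for 90 min at 37 C, then heated 3 min at one of 12 temperatures (42-63.9 C). Soluble protein was quantified by TMT10 MS. The value is the DLPTP call of the paper: dose-dependent thermal stabilisation over all temperatures at 10% FDR (F-test of a dose-response against a flat model); one experiment, one call per tested protein.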
row,Target,dose-dependent thermal stabilisation call
1,CASC4 (UniProt Q6P4E1),inactive: 0
2,CBX1 (UniProt P83916),inactive: 0
3,CCDC75 (UniProt Q8N954),inactive: 0
4,C1ORF149 (UniProt Q9HAF1),inactive: 0
5,C9ORF167 (UniProt Q9NXH8),inactive: 0
6,CCDC44 (UniProt Q9BSH4),inactive: 0
7,C8ORF30A (UniProt Q9BTY7),inactive: 0
8,C6ORF89 (UniProt Q6UWU4),inactive: 0
9,C8ORF59 (UniProt Q8N0T1),inactive: 0
10,C7ORF30 (UniProt Q96EH3),inactive: 0
11,C5ORF24 (UniProt Q7Z6I8),inactive: 0
12,C3ORF37 (UniProt Q96FZ2),inactive: 0
13,CAST (UniProt P20810),inactive: 0
14,C1ORF163 (UniProt Q96BR5),inactive: 0
15,CCDC5 (UniProt Q96CS2),inactive: 0
16,C3ORF63 (UniProt Q9UK61),inactive: 0
17,CARS (UniProt P49589),inactive: 0
18,C4ORF27 (UniProt Q9NWY4),inactive: 0
19,C1ORF174 (UniProt Q8IYL3),inactive: 0
20,C1GALT1C1 (UniProt Q96EU7),inactive: 0

row,Target,dose-dependent thermal stabilisation call
1,CCDC88C (UniProt Q9P219),inactive: 0
2,C1ORF151 (UniProt Q5TGZ0),inactive: 0
3,CCRN4L (UniProt Q9UK39),inactive: 0
4,C1ORF35 (UniProt Q9BU76),inactive: 0
5,CCDC55 (UniProt Q9H0G5),inactive: 0
6,C4ORF32 (UniProt Q8N8J7),inactive: 0
7,C7ORF11 (UniProt Q8TAP9),inactive: 0
8,CAPN1 (UniProt P07384),inactive: 0
9,CANX (UniProt P27824),inactive: 0
10,CBX5 (UniProt P45973),inactive: 0
11,C1ORF112 (UniProt Q9NSG2),inactive: 0
12,CARD9 (UniProt Q9H257),inactive: 0
13,CALR (UniProt P27797),inactive: 0
14,CACNA2D1 (UniProt P54289),inactive: 0
15,CAND1 (UniProt Q86VP6),inactive: 0
16,CCDC91 (UniProt Q7Z6B0),inactive: 0
17,CCNT1 (UniProt O60563),inactive: 0
18,C3ORF21 (UniProt Q8NBI6),inactive: 0
19,CAB39 (UniProt Q9Y376),inactive: 0
20,C5ORF22 (UniProt Q49AR2),inactive: 0

# 2 entries drawn at random from the list so far:
row,Target,dose-dependent thermal stabilisation call
20,C1GALT1C1 (UniProt Q96EU7),inactive: 0
4,C1ORF35 (UniProt Q9BU76),inactive: 0
